Results are given in words; binding and its absence hold for the method and conditions named. Binding seen in cells or lysates may run through a third protein. Here binding means that the protein was enriched with, or labelled near, the bait; the list need not be complete. For part of these data: Where a sequence is shown, tags or fusion partners need not be part of it.
B1: JPT1 (endogenous) (protein, UniProt Q9UK76 1-154)
chain: MTTTTTFKGVDPNSRNSSRVLRPPGGGSNFSLGFDEPTEQPVRKNKMASNIFGTPEENQASWAKSAGAKSSGGREDLESSGLQRRNSSEASSGDFLDLKGEGDIHENVDTDLPGSLGQSEEKPVPAAPVPSPVAPAPVPSRRNPPGGKSSLVLG
B2: Flag-mEGFP-JPT2 (protein, UniProt Q9H910-1 1-190)
chain: MFQVPDSEGGRAGSRAMKPPGGESSNLFGSPEEATPSSRPNRMASNIFGPTEEPQNIPKRTNPPGGKGSGIFDESTPVQTRQHLNPPGGKTSDIFGSPVTATSRLAHPNKPKDHVFLCEGEEPKSDLKAARSIPAGAEPGEKGSARKAGPAKEQEPMPTVDSHEPRLGPRPRSHNKVLNPPGGKSSISFY
B3: Flag-copGFP-JPT2 (protein, UniProt Q9H910-1 1-190)
chain: MFQVPDSEGGRAGSRAMKPPGGESSNLFGSPEEATPSSRPNRMASNIFGPTEEPQNIPKRTNPPGGKGSGIFDESTPVQTRQHLNPPGGKTSDIFGSPVTATSRLAHPNKPKDHVFLCEGEEPKSDLKAARSIPAGAEPGEKGSARKAGPAKEQEPMPTVDSHEPRLGPRPRSHNKVLNPPGGKSSISFY
B4: Flag-copGFP-JPT1 (protein, UniProt Q9UK76-1 1-154)
chain: MTTTTTFKGVDPNSRNSSRVLRPPGGGSNFSLGFDEPTEQPVRKNKMASNIFGTPEENQASWAKSAGAKSSGGREDLESSGLQRRNSSEASSGDFLDLKGEGDIHENVDTDLPGSLGQSEEKPVPAAPVPSPVAPAPVPSRRNPPGGKSSLVLG
B5: Flag-copGFP-JPT2 (178-190 a.a.) (domain or fragment)
chain: LNPPGGKSSISFY
B6: Jupiter microtubule-associated homolog 2 (JPT2), endogenous (protein, UniProt Q9H910 1-190)
chain: MFQVPDSEGGRAGSRAMKPPGGESSNLFGSPEEATPSSRPNRMASNIFGPTEEPQNIPKRTNPPGGKGSGIFDESTPVQTRQHLNPPGGKTSDIFGSPVTATSRLAHPNKPKDHVFLCEGEEPKSDLKAARSIPAGAEPGEKGSARKAGPAKEQEPMPTVDSHEPRLGPRPRSHNKVLNPPGGKSSISFY

By UniProt entry, the sequences of proteins in these tests, tags left out.
UniProt P68371: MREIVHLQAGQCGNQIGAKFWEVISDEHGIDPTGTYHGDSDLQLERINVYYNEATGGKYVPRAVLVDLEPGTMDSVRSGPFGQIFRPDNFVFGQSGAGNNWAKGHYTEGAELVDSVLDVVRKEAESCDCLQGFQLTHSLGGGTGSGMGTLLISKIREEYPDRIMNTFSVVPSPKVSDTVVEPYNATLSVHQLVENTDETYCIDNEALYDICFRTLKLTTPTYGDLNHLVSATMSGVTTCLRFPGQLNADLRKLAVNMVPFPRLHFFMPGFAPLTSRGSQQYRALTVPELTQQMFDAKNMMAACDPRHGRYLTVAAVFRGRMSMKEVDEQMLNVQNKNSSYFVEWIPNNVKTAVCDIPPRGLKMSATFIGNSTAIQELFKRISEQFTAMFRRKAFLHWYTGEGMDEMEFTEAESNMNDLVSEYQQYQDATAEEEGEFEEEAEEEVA
UniProt Q1MSJ5: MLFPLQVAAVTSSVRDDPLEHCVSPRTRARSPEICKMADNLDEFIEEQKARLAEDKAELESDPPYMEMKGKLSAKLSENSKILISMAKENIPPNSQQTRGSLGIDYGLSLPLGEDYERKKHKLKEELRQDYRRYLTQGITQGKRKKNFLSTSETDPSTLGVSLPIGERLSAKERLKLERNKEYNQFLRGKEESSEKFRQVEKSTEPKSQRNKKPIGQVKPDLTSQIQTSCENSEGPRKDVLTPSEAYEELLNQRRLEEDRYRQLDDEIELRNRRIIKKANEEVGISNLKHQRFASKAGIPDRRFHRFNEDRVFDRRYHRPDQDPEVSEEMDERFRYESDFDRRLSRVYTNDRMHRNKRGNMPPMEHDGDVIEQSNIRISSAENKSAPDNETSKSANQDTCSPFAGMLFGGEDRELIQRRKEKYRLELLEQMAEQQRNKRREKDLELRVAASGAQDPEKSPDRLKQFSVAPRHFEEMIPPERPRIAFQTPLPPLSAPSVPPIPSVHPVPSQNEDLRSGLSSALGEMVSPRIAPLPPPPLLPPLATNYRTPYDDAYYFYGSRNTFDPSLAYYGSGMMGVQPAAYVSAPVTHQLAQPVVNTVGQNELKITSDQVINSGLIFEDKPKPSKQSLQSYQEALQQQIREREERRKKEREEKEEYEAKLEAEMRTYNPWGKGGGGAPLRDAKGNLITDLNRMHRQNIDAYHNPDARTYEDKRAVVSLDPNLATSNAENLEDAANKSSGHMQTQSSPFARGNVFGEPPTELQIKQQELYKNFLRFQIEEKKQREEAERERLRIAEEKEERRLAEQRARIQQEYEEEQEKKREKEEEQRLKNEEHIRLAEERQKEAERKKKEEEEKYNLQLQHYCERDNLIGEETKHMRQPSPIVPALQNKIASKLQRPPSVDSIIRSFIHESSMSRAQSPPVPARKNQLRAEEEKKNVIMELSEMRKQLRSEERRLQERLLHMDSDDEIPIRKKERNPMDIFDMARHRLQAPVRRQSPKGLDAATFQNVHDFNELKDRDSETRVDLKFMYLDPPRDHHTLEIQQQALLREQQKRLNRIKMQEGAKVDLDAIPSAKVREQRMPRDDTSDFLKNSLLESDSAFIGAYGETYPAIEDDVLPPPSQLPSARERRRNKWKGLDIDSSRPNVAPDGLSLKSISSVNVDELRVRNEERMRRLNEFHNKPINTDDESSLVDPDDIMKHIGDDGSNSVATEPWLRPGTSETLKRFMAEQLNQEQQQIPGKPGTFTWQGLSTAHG
UniProt Q7Z460: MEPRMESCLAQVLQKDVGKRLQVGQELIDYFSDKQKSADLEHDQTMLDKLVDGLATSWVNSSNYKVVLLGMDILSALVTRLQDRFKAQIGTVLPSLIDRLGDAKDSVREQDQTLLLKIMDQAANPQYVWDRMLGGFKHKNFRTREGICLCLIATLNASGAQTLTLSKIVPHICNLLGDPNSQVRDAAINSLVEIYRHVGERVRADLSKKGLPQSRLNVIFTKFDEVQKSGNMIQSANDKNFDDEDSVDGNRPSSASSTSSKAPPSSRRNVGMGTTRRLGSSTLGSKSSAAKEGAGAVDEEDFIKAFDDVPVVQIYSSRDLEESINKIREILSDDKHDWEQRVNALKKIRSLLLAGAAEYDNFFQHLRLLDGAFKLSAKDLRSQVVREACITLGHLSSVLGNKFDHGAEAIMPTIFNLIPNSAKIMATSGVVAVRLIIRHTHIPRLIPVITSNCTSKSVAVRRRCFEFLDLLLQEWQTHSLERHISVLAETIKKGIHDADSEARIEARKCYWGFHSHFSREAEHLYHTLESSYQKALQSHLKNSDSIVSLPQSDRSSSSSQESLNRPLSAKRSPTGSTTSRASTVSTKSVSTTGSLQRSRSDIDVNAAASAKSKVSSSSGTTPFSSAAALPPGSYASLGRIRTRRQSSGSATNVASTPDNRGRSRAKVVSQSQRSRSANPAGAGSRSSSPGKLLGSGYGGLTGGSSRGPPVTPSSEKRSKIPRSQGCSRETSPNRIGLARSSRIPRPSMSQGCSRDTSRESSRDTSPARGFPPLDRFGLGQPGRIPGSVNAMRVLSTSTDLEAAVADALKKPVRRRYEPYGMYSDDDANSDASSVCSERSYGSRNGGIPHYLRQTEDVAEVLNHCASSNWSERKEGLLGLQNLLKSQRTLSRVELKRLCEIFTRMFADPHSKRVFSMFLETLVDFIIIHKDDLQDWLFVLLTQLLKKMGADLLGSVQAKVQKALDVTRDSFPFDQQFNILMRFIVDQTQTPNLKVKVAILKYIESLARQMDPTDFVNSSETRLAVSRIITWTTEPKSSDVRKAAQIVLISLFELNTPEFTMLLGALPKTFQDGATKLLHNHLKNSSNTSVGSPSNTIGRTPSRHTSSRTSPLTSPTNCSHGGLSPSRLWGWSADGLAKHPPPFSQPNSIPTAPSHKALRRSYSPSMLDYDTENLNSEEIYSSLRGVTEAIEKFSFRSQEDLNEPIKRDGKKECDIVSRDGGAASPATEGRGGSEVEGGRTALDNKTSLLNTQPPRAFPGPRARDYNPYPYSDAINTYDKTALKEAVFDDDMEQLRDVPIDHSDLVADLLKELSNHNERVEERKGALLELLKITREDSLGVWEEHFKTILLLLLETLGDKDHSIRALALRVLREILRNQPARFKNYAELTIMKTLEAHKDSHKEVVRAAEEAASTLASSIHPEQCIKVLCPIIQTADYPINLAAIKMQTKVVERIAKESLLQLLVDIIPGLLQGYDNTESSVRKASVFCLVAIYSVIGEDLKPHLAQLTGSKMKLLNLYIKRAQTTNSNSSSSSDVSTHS
UniProt P27816: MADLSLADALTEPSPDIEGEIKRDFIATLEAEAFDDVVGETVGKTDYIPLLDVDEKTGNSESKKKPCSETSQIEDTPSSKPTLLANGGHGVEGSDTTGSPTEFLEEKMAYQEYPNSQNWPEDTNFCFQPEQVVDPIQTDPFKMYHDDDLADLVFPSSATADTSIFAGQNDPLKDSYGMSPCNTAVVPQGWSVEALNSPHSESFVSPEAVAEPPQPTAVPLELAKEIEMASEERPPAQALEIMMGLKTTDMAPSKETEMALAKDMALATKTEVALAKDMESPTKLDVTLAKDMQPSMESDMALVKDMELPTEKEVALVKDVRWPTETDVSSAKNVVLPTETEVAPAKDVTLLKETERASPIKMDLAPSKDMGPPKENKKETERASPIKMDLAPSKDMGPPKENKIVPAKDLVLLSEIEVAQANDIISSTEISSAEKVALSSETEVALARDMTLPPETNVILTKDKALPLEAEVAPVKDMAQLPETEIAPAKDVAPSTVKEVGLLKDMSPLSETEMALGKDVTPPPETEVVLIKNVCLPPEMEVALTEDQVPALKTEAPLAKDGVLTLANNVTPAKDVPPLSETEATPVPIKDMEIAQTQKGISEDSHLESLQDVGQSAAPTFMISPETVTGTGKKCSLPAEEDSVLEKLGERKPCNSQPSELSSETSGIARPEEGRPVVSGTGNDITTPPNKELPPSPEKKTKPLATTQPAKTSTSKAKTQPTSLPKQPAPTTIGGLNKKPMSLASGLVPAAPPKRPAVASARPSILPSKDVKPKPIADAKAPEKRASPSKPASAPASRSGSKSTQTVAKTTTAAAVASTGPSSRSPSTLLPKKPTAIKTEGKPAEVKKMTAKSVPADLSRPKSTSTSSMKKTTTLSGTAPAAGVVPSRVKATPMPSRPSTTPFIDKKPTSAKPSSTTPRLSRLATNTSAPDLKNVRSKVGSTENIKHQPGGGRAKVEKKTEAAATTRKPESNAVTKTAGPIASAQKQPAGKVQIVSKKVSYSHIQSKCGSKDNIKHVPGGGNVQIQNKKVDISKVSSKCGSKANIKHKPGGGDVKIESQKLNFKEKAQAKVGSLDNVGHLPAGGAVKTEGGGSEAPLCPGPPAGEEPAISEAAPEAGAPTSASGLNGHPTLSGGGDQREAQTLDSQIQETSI
UniProt Q14244: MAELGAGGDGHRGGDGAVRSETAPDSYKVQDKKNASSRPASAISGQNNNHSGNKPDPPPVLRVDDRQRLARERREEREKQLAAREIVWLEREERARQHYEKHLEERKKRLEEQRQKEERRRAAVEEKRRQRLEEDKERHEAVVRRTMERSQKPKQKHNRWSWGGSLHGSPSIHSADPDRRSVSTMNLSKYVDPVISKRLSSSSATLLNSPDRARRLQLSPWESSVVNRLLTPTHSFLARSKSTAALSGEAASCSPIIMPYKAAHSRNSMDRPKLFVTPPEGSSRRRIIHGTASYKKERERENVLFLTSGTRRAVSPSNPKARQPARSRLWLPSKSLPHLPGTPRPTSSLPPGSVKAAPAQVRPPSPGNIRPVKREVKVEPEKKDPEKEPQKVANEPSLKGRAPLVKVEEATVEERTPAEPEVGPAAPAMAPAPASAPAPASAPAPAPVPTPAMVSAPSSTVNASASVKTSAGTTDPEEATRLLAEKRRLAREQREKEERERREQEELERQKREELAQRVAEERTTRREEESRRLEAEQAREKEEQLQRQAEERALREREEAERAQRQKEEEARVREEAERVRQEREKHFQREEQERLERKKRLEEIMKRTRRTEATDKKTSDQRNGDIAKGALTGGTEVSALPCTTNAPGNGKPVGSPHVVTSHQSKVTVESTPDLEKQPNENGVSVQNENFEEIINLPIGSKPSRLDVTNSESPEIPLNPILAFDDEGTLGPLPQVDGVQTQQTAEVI

Each molecule was assayed against HA-BirA*-TUBB4B (human (endogenous in HeLa)) (UniProt P68371) (assay: proximity labelling).
For “CSPP1 (endogenous) (from UniProt Q1MSJ5 1-1256)”, the binding was “binds”. “Flag-mEGFP-MAP6 (from UniProt Q96JE9-1 1-813)” was tested, and the binding was “binds”. With “MEC17-Flag (from UniProt Q5SQI0-1 1-421) (enzyme)” the binding was “binds”.

The molecules below were run against TUBB4B-BirA*-HA (human (endogenous in HeLa)) (UniProt P68371) (assay: proximity labelling).
For CLASP1 (from UniProt Q7Z460 1-1538), the binding was “binds”. In the case of MAP4 (from UniProt P27816 1-1152), the binding is reported as “binds”. In the case of MAP7 (from UniProt Q14244 1-749), the binding is reported as “binds”.

Biological target: HA-BirA*-TUBB4B (human (endogenous in HeLa)) (UniProt P68371)
Assay: proximity labelling
Remark: another data set of the same source
In the case of B1, the binding is reported as “binds”. In the case of B2, the binding is reported as “binds”. In the case of B3, the binding is reported as “binds”. With B4 the binding was “binds”. In the case of B5, the binding is reported as “binds”. For B6, the binding was “binds”.
